# Laboratory results: the supplement of paper PMC10849652
# By UniProt entry, the sequences of proteins in these tests, tags left out. Where a name states a change or a piece, a line headed by the entry shows the natural chain unless it says otherwise.
# UniProt P51610: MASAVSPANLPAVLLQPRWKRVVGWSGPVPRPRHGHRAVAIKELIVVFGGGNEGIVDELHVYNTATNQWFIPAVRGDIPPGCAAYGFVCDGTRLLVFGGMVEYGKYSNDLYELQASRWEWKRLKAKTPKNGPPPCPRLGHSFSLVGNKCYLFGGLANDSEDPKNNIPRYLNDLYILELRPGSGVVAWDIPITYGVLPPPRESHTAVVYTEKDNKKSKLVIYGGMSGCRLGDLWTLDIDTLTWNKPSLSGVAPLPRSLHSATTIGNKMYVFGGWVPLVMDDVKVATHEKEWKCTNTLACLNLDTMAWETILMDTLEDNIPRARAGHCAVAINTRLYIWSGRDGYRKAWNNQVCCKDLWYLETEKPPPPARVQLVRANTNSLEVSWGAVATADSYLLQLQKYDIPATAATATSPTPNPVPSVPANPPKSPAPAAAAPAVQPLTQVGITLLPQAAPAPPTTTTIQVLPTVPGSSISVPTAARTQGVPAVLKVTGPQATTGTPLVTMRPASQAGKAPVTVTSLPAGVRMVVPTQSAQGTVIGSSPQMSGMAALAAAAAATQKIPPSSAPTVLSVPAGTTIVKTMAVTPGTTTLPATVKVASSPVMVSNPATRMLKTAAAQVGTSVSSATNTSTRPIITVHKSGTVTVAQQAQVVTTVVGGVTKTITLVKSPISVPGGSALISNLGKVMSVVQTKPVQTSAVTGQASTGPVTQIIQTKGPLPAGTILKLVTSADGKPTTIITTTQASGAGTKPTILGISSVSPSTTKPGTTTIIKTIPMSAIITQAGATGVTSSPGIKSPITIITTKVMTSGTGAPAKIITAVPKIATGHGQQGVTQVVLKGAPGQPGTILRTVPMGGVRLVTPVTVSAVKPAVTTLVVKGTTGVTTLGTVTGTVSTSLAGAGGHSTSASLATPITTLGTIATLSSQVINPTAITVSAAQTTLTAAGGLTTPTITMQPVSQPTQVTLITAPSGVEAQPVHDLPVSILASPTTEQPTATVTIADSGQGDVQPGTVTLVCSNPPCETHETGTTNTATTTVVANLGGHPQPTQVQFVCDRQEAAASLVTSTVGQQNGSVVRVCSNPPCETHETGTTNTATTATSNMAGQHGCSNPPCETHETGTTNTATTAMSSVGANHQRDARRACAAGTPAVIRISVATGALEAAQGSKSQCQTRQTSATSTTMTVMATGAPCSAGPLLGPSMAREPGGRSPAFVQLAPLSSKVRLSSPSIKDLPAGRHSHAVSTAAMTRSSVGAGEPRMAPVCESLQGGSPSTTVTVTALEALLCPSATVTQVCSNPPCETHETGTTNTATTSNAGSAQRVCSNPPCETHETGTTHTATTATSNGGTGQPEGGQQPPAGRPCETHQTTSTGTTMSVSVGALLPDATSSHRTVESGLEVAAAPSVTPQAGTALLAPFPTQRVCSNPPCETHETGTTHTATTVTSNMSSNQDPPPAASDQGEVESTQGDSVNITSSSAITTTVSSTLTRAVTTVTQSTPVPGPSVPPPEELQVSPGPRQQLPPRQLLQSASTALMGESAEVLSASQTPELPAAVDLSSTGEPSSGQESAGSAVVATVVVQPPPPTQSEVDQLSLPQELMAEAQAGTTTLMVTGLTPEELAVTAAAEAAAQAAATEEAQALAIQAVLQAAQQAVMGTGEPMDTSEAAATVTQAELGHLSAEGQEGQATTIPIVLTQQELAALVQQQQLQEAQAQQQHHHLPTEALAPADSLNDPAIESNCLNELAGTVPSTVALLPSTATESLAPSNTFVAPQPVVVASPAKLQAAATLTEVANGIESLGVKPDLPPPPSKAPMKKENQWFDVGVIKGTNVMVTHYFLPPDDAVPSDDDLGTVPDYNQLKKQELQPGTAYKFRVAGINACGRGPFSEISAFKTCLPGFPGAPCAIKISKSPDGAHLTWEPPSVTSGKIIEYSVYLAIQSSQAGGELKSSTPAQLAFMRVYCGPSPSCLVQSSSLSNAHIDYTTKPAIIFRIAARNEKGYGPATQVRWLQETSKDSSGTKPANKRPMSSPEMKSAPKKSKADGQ
# UniProt P49841: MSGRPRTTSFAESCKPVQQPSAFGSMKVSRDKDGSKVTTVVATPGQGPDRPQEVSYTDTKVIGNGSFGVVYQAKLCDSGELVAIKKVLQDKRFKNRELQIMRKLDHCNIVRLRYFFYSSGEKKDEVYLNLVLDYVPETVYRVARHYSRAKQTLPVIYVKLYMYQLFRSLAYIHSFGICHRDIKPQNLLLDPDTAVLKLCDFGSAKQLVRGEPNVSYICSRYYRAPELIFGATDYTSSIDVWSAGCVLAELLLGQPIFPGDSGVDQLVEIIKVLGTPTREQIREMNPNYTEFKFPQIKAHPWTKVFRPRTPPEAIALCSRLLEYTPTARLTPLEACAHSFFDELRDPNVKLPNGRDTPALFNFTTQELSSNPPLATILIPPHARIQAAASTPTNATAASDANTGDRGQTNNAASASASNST
# UniProt P16402, whole entry, looked up: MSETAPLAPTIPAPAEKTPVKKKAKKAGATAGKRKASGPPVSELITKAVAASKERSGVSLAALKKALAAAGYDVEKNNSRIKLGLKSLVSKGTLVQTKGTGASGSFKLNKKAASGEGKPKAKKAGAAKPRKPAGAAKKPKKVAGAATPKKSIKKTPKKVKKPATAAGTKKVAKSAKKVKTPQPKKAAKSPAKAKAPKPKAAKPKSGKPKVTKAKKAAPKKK
# UniProt P02724: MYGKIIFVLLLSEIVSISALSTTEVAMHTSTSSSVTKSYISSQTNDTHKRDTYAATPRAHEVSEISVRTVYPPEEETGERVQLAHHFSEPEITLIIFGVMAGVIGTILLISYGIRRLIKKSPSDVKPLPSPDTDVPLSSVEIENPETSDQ
# UniProt Q9UKN8: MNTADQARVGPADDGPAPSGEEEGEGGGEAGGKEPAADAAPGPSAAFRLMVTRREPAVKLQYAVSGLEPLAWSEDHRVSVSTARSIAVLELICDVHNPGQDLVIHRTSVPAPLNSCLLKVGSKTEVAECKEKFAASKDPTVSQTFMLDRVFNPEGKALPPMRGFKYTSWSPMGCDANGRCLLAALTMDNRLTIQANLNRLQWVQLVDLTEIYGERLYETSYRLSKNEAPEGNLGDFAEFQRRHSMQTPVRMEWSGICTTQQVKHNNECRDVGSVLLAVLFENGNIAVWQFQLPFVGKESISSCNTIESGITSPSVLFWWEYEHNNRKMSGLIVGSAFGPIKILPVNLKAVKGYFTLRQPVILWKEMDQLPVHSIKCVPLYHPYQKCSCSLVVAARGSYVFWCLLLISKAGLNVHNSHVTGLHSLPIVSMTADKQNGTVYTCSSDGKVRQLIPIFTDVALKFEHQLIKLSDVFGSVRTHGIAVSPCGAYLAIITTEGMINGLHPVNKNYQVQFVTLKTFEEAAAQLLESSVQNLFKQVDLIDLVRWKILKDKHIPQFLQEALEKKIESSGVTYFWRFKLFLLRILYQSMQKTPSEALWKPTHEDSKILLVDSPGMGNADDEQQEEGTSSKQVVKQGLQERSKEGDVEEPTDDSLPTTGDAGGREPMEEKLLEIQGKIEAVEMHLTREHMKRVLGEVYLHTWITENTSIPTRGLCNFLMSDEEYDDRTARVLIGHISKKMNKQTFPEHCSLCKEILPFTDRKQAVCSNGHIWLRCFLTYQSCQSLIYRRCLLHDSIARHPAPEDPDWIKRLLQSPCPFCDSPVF
# UniProt Q13322: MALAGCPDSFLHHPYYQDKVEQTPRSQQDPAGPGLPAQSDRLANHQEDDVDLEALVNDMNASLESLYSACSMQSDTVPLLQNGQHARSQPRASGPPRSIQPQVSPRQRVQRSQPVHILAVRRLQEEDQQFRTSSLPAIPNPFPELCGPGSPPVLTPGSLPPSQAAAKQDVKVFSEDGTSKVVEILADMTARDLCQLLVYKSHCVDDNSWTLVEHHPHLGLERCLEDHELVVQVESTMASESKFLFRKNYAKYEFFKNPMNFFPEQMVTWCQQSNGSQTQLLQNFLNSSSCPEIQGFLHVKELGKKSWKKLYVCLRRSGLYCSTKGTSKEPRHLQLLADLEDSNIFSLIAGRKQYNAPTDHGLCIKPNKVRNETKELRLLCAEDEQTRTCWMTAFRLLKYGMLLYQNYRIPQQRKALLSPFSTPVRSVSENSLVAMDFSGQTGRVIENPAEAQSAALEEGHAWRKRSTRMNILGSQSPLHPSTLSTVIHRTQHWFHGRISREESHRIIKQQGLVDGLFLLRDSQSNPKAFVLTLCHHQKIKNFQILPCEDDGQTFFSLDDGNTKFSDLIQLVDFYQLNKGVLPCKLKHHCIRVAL
# UniProt P09211: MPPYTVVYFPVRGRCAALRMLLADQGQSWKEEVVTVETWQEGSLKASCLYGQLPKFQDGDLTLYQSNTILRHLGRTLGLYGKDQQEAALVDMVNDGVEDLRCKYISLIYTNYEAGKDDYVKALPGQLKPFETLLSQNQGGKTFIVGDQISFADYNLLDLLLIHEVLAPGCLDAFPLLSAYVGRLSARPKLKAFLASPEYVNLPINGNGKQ
# UniProt A4D1E9: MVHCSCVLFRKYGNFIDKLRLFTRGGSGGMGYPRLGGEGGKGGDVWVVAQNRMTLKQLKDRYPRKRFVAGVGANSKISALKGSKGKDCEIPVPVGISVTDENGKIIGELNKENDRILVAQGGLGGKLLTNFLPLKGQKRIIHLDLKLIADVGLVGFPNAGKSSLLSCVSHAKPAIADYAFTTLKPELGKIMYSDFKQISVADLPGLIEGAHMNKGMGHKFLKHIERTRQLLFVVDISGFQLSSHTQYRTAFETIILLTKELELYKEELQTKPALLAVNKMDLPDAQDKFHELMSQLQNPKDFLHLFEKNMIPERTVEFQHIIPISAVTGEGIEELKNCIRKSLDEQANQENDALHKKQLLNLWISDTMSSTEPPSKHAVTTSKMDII
# UniProt Q8IYU2: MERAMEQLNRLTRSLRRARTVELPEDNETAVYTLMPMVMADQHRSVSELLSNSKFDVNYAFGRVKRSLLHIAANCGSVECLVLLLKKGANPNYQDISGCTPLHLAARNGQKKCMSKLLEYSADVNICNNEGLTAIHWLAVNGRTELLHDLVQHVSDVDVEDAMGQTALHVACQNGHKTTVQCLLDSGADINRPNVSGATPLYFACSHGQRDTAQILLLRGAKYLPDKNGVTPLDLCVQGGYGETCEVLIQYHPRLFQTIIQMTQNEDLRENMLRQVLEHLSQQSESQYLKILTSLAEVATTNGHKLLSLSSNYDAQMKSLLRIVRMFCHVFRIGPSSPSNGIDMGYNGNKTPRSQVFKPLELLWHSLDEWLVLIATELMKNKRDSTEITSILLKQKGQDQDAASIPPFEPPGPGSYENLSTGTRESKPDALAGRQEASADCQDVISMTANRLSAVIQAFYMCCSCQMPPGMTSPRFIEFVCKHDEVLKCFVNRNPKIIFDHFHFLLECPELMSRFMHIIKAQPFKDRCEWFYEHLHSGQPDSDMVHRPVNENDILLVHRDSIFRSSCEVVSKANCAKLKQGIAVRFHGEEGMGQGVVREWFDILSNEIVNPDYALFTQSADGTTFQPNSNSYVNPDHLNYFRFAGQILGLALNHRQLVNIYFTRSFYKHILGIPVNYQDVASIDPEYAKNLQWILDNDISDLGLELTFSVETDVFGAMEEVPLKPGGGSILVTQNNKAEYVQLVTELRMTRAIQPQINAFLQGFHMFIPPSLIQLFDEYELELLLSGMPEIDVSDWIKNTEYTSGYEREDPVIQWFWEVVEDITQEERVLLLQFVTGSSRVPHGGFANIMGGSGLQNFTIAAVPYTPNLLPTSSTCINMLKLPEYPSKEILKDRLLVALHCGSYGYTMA
# UniProt Q9Y450, whole entry, looked up: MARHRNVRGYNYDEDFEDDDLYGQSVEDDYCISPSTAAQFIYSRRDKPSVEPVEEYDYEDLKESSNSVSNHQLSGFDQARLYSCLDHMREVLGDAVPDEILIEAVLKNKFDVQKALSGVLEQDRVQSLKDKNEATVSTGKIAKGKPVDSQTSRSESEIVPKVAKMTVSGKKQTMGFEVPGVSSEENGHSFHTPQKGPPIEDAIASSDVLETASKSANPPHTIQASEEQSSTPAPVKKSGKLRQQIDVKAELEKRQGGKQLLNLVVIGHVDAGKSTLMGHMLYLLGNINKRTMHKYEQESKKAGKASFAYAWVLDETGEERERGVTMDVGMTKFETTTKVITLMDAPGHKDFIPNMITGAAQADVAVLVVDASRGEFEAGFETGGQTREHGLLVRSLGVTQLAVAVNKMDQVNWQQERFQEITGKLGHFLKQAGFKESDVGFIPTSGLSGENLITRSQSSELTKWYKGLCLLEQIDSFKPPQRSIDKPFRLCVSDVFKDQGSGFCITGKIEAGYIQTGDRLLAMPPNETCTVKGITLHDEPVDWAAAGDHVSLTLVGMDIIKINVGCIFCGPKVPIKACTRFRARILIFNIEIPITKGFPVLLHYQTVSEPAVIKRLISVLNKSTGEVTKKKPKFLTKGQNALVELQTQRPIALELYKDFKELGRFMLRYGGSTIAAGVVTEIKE
# This is one part of the list.
# Assays:
# Assay in all cases: log2 fold change, soluble protein after heating vs DMSO (PISA); higher = thermal stabilisation; K562 lysate, 10 uM; active = over 0.2 and 3.5 SD of the protein, either way, in both replicates (recomputed)
# lapatinib = compound: CS(=O)(=O)CCNCc1ccc(-c2ccc3ncnc(Nc4ccc(OCc5cccc(F)c5)c(Cl)c4)c3c2)o1 [lapatinib]
# Outline: (§1)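 Thermal stability, expressed as log-two fold change relative to solvent controls, is given from duplicates. Crude K562 extract in PBS pH 7.4 with 1 mM MgCl2, at 1 mg/mL protein, was treated with 10 μM compound for 30 min and heated in aliquots for 3 min across 48°C-58°C. After pooling, adjustment to 0.5% NP-40 at 4°C and centrifugation at 21,000xg for 90 min, supernatant protein was measured by TMTpro 16plex LC-MS/MS with channel sums equalised.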
# pictilisib = compound: CS(=O)(=O)N1CCN(Cc2cc3nc(-c4cccc5[nH]ncc45)nc(N4CCOCC4)c3s2)CC1 [pictilisib]
# Outline: as §1
# crizotinib = compound: C[C@@H](Oc1cc(-c2cnn(C3CCNCC3)c2)cnc1N)c1c(Cl)ccc(F)c1Cl [crizotinib]
# Outline: as §1
# [1] = compound: C[C@H](C1=CC=C(C=C1)C(=O)NC2=C3C=CNC3=NC=C2)N
# Outline: as §1
# duvelisib = compound: C[C@H](Nc1ncnc2nc[nH]c12)c1cc2cccc(Cl)c2c(=O)n1-c1ccccc1 [duvelisib]
# Outline: as §1
# gandotinib = compound: Cc1cc(Nc2cc(CN3CCOCC3)c3nc(C)c(Cc4ccc(Cl)cc4F)n3n2)n[nH]1 [gandotinib]
# Outline: as §1
# tozasertib = compound: Cc1cc(Nc2cc(N3CCN(C)CC3)nc(Sc3ccc(NC(=O)C4CC4)cc3)n2)n[nH]1 [tozasertib]
# Outline: as §1
# doramapimod = compound: Cc1ccc(-n2nc(C(C)(C)C)cc2NC(=O)Nc2ccc(OCCN3CCOCC3)c3ccccc23)cc1 [doramapimod]
# Outline: as §1
# bafetinib = compound: Cc1ccc(NC(=O)c2ccc(CN3CC[C@H](N(C)C)C3)c(C(F)(F)F)c2)cc1Nc1nccc(-c2cncnc2)n1 [bafetinib]
# Outline: as §1
# [2] = compound: Cc1cccc(CC(=O)N2CCc3c2ccc(-c2cn(C)c4ncnc(N)c24)c3F)n1
# Outline: as §1
# nilotinib = compound: Cc1cn(-c2cc(NC(=O)c3ccc(C)c(Nc4nccc(-c5cccnc5)n4)c3)cc(C(F)(F)F)c2)cn1 [nilotinib]
# Outline: as §1
# [3] = compound: Cc1nc(Nc2n[nH]c3c2CN(C(=O)N[C@H](CN(C)C)c2ccccc2)C3(C)C)c2sccc2n1
# Outline: as §1
# dasatinib = compound: Cc1nc(Nc2ncc(C(=O)Nc3c(C)cccc3Cl)s2)cc(N2CCN(CCO)CC2)n1 [dasatinib]
# Outline: as §1
# [4] = compound: Cc1ncc(-c2ccnc(Nc3ccc(S(C)(=O)=O)cc3)n2)n1C(C)C
# Outline: as §1
# [5] = compound: Cn1cc(-c2ccc3c(c2)CCN3C(=O)Cc2cccc(C(F)(F)F)c2)c2c(N)ncnc21
# Outline: as §1
# quisinostat = compound: Cn1cc(CNCC2CCN(c3ncc(C(=O)NO)cn3)CC2)c2ccccc21 [quisinostat]
# Outline: as §1
# tipifarnib = compound: Cn1cncc1[C@@](N)(c1ccc(Cl)cc1)c1ccc2c(c1)c(-c1cccc(Cl)c1)cc(=O)n2C [tipifarnib]
# Outline: as §1
# [6] = compound: NC(=O)Nc1cc(-c2cccc(F)c2)sc1C(=O)N[C@H]1CCCNC1
# Outline: as §1
# [7] = compound: NC(=O)c1cnc(N[C@@H]2CCCC[C@@H]2N)nc1Nc1cccc(-n2nccn2)c1
# Outline: as §1
# [8] = compound: NC1(c2ccc(-c3nc4ccn5c(=O)[nH]nc5c4cc3-c3ccccc3)cc2)CCC1
# Outline: as §1
Target,log2 fold change (lapatinib),log2 fold change (pictilisib),log2 fold change (crizotinib),log2 fold change [1],log2 fold change (duvelisib),log2 fold change (gandotinib),log2 fold change (tozasertib),log2 fold change (doramapimod),log2 fold change (bafetinib),log2 fold change [2],log2 fold change (nilotinib),log2 fold change [3],log2 fold change (dasatinib),log2 fold change [4],log2 fold change [5],log2 fold change (quisinostat),log2 fold change (tipifarnib),log2 fold change [6],log2 fold change [7],log2 fold change [8]
HCFC1 isoform 4 (UniProt P51610),inactive: 0.003,inactive: 0.011,inactive: 0.023,inactive: -0.02,inactive: -0.002,inactive: 0.04,inactive: -0.019,inactive: 0.001,inactive: -0.005,inactive: -0.017,inactive: 0.01,inactive: 0.007,inactive: 0,inactive: 0.008,inactive: -0.012,inactive: 0.006,inactive: -0.01,inactive: -0.008,inactive: -0.024,inactive: 0.023
GSK3B isoform 2 (UniProt P49841),inactive: -0.083,inactive: 0.191,inactive: 0.003,inactive: 0.018,inactive: -0.02,inactive: 0.59,inactive: -0.078,inactive: 0.03,inactive: -0.041,inactive: -0.06,inactive: -0.06,inactive: 0.576,inactive: -0.023,active: 0.64,inactive: -0.028,inactive: -0.084,inactive: 0.003,inactive: 0,inactive: 0.061,inactive: -0.039
H1-3 (UniProt P16402),inactive: -0.018,inactive: 0.003,inactive: -0.003,inactive: 0.028,inactive: -0.039,inactive: 0.014,inactive: -0.016,inactive: -0.016,inactive: 0.037,inactive: -0.021,inactive: 0.024,inactive: -0.003,inactive: 0.006,inactive: 0.002,inactive: -0.067,inactive: -0.021,inactive: 0.026,inactive: 0.022,inactive: -0.034,inactive: -0.019
HDGFL2 isoform 2 (UniProt Q7Z4V5),inactive: 0.02,inactive: 0.027,inactive: -0.028,active: -0.348,inactive: 0.037,active: 0.248,inactive: 0.018,inactive: -0.003,inactive: 0,inactive: 0.167,inactive: -0.005,inactive: -0.005,inactive: 0.014,inactive: -0.021,inactive: -0.023,inactive: -0.061,inactive: 0.003,inactive: 0.011,inactive: -0.001,inactive: -0.02
GYPA (UniProt P02724),inactive: 0.074,inactive: -0.01,inactive: 0.017,active: 0.528,inactive: 0.013,inactive: -0.197,inactive: -0.02,inactive: -0.033,inactive: 0.229,inactive: -0.234,–,–,inactive: 0.097,–,inactive: 0.045,inactive: -0.062,–,inactive: 0.026,inactive: -0.047,inactive: -0.024
GTF3C4 (UniProt Q9UKN8),inactive: -0.017,inactive: -0.013,inactive: -0.014,inactive: 0.027,inactive: 0.008,inactive: -0.063,inactive: 0.034,inactive: 0.02,inactive: -0.045,inactive: 0.034,inactive: 0.014,inactive: -0.019,inactive: -0.042,inactive: -0.015,inactive: 0.008,inactive: 0.003,inactive: -0.005,inactive: 0.01,inactive: 0.006,inactive: -0.012
GRB10 (UniProt Q13322),inactive: -0.029,inactive: -0.034,inactive: -0.028,inactive: -0.125,inactive: 0.029,inactive: 0.016,inactive: -0.06,inactive: 0.021,inactive: -0.049,inactive: 0.099,inactive: 0.053,inactive: -0.028,inactive: -0.003,inactive: 0.026,inactive: 0.04,inactive: -0.065,inactive: -0.058,inactive: 0.008,inactive: -0.056,inactive: 0.008
GTPBP4 (UniProt Q9BZE4),inactive: 0.007,inactive: -0.013,inactive: -0.079,inactive: -0.01,inactive: 0.018,inactive: -0.016,inactive: -0.005,inactive: -0.003,inactive: -0.041,inactive: 0.029,inactive: 0.029,inactive: 0.008,inactive: -0.009,inactive: -0.015,inactive: -0.004,inactive: -0.03,inactive: -0.003,inactive: 0.029,inactive: -0.005,inactive: -0.007
GSTP1 (UniProt P09211),inactive: -0.015,inactive: 0.021,inactive: -0.018,inactive: -0.025,inactive: 0.001,inactive: -0.035,inactive: -0.007,inactive: -0.006,inactive: 0.01,inactive: 0.003,inactive: 0.006,inactive: -0.001,inactive: -0.035,inactive: -0.003,inactive: -0.01,inactive: -0.016,inactive: 0.029,inactive: -0.029,inactive: -0.004,inactive: 0.01
GTPBP10 (UniProt A4D1E9),inactive: -0.007,inactive: -0.048,inactive: -0.039,inactive: -0.004,inactive: -0.019,inactive: -0.009,inactive: -0.103,inactive: -0.114,inactive: -0.151,inactive: -0.019,inactive: -0.011,inactive: -0.031,inactive: -0.059,inactive: -0.032,inactive: 0.003,inactive: -0.041,inactive: 0.153,inactive: -0.041,inactive: -0.034,inactive: -0.023
HACE1 (UniProt Q8IYU2),inactive: -0.05,inactive: 0.005,inactive: 0.026,active: -0.491,inactive: 0.033,inactive: 0.302,inactive: -0.036,inactive: 0.015,inactive: -0.036,inactive: 0.426,inactive: -0.027,inactive: 0.043,inactive: -0.154,inactive: 0.035,inactive: -0.084,inactive: 0.061,inactive: -0.175,inactive: 0.181,inactive: 0.028,inactive: -0.02
HBS1L isoform 2 (UniProt Q9Y450),inactive: 0.039,inactive: 0.043,inactive: -0.003,inactive: -0.04,inactive: 0.027,inactive: 0.035,inactive: 0.009,inactive: 0.02,inactive: -0.036,inactive: 0.053,inactive: -0.069,inactive: -0.028,inactive: 0.01,inactive: 0.074,inactive: -0.081,inactive: -0.079,inactive: 0.009,inactive: 0.073,inactive: -0.006,inactive: -0.008
